# Test results as given in PubChem BioAssay AID248 (DTP/NCI, 2004).
# The list does not hold the whole screen: it gathers tests that were run many times, whatever their T/C, doses with no T/C, and many T/C values between a quarter and a half above the control. Further doses and runs are listed elsewhere. T/C is the treated group as % of the vehicle group. Some doses have a count of surviving animals in place of a T/C: the source files T/C as zero there, which appears to mark a toxic dose or a test without result, not a measured value. Some doses without a T/C left all or most animals alive at the check, yet need not have been tolerated: survival well below the control is almost never listed, so the zero probably covers shortened survival too. Counts of survivors are from the toxicity check (mostly the fifth day) where no day follows; animals may have died later. Schedules are NCI's codes, taken here to give the interval after Q, in days (D) or hours (H), and the number of doses after X. For survival time, the PubChem record calls one and a half times the control and up active, and a quarter to a half above the control has no call in these data; cut-offs in other NCI protocols can differ. Some T/C values carry the count of animals alive at the toxicity check (mostly the fifth day); without a count, all were alive then. Some doses were run more than once; their values stand side by side, smallest first. Marks such as (2×) say how often a value occurs here.
# Test system: L1210 leukemia ip in BDF1 mice, survival T/C
# Test: NCI In Vivo Anticancer Drug Screen. Data for tumor model L1210 Leukemia (intraperitoneal) in B6D2F1 (BDF1) mice
# Conditions: higher T/C = longer survival
structure (smiles),measurement,setting,value
O=c1[nH]c(=O)n([C@H]2CCCO2)cc1F,T/C,"T/C endpoint: mean survival time, dose: 80.0 mg/kg/injection, schedule: Q01DX009 (ip), vehicle: saline",130 % of control
same,T/C,"T/C endpoint: mean survival time, dose: 83.9 mg/kg/injection, schedule: Q01DX012 (sc), vehicle: clinical formulation",138 % of control
same,T/C,"T/C endpoint: mean survival time, dose: 108.0 mg/kg/injection, schedule: Q01DX009 (ip), vehicle: saline",144 % of control
same,T/C,"T/C endpoint: mean survival time, dose: 131.0 mg/kg/injection, schedule: Q01DX005 (sc), vehicle: clinical formulation",139 % of control
same,T/C,"T/C endpoint: mean survival time, dose: 131.0 mg/kg/injection, schedule: Q01DX012 (sc), vehicle: clinical formulation",133 % of control
same,T/C,"T/C endpoint: mean survival time, dose: 160.0 mg/kg/injection, schedule: Q01DX009 (ip), vehicle: saline",149 % of control
same,T/C,"T/C endpoint: mean survival time, dose: 180.0 mg/kg/injection, schedule: Q01DX009 (ip), vehicle: Klucel (hydroxypropylcellulose) (HPC)",141 % of control
same,T/C,"T/C endpoint: mean survival time, dose: 180.0 mg/kg/injection, schedule: Q01DX009 (ip), vehicle: saline",132 % of control
same,T/C,"T/C endpoint: mean survival time, dose: 180.0 mg/kg/injection, schedule: Q04DX003 (ip), vehicle: Klucel (hydroxypropylcellulose) (HPC)",125 % of control
same,T/C,"T/C endpoint: mean survival time, dose: 200.0 mg/kg/injection, schedule: Q01DX009 (ip), vehicle: saline",138 % of control
same,T/C,"T/C endpoint: mean survival time, dose: 200.0 mg/kg/injection, schedule: Q04DX003 (ip), vehicle: saline",127 and 134 % of control
same,T/C,"T/C endpoint: mean survival time, dose: 205.0 mg/kg/injection, schedule: Q01DX002 (sc), vehicle: clinical formulation",127 % of control
same,T/C,"T/C endpoint: mean survival time, dose: 225.0 mg/kg/injection, schedule: Q04DX003 (ip), vehicle: saline with Tween-80",131 % of control
same,T/C,"T/C endpoint: mean survival time, dose: 300.0 mg/kg/injection, schedule: Q04DX003 (ip), vehicle: saline with Tween-80",140 % of control
same,T/C,"T/C endpoint: mean survival time, dose: 320.0 mg/kg/injection, schedule: Q01DX002 (sc), vehicle: clinical formulation",146 % of control
same,T/C,"T/C endpoint: mean survival time, dose: 320.0 mg/kg/injection, schedule: Q01DX009 (ip), vehicle: saline",136 % of control
same,T/C,"T/C endpoint: mean survival time, dose: 363.0 mg/kg/injection, schedule: Q01DX001 (ip), vehicle: other",135 % of control
same,T/C,"T/C endpoint: mean survival time, dose: 363.0 mg/kg/injection, schedule: Q01DX001 (sc), vehicle: other",128 and 135 % of control
same,T/C,"T/C endpoint: mean survival time, dose: 400.0 mg/kg/injection, schedule: Q01DX002 (sc), vehicle: clinical formulation",130 % of control
same,T/C,"T/C endpoint: mean survival time, dose: 400.0 mg/kg/injection, schedule: Q04DX002 (sc), vehicle: clinical formulation",137 % of control
same,T/C,"T/C endpoint: mean survival time, dose: 400.0 mg/kg/injection, schedule: Q04DX003 (ip), vehicle: saline",133 % of control
same,T/C,"T/C endpoint: mean survival time, dose: 400.0 mg/kg/injection, schedule: Q10DX002 (sc), vehicle: clinical formulation",138 % of control
same,T/C,"T/C endpoint: mean survival time, dose: 450.0 mg/kg/injection, schedule: Q04DX003 (ip), vehicle: saline with Tween-80",145 % of control
same,T/C,"T/C endpoint: mean survival time, dose: 490.0 mg/kg/injection, schedule: Q01DX001 (ip), vehicle: other",128 % of control
same,T/C,"T/C endpoint: mean survival time, dose: 490.0 mg/kg/injection, schedule: Q01DX001 (sc), vehicle: other",126 and 135 % of control
same,T/C,"T/C endpoint: mean survival time, dose: 500.0 mg/kg/injection, schedule: Q04DX002 (sc), vehicle: clinical formulation",138 % of control
same,T/C,"T/C endpoint: mean survival time, dose: 625.0 mg/kg/injection, schedule: Q01DX001 (sc), vehicle: clinical formulation",138 % of control
same,T/C,"T/C endpoint: mean survival time, dose: 625.0 mg/kg/injection, schedule: Q04DX002 (sc), vehicle: clinical formulation",129 % of control
same,T/C,"T/C endpoint: mean survival time, dose: 625.0 mg/kg/injection, schedule: Q10DX002 (sc), vehicle: clinical formulation",135 % of control
same,survivor count,"T/C endpoint: mean survival time, dose: 640.0 mg/kg/injection, schedule: Q01DX009 (oral), vehicle: saline",6 of 6
same,survivor count,"T/C endpoint: mean survival time, dose: 700.0 mg/kg/injection, schedule: Q01DX001 (ip), vehicle: other",6 of 6
same,T/C,"T/C endpoint: mean survival time, dose: 781.0 mg/kg/injection, schedule: Q01DX001 (sc), vehicle: clinical formulation",135 % of control
same,T/C,"T/C endpoint: mean survival time, dose: 833.0 mg/kg/injection, schedule: Q01DX001 (ip), vehicle: Klucel (hydroxypropylcellulose) (HPC)",130 % of control [7 of 8 alive]
same,T/C,"T/C endpoint: mean survival time, dose: 977.0 mg/kg/injection, schedule: Q10DX002 (sc), vehicle: clinical formulation",144 % of control
same,survivor count,"T/C endpoint: mean survival time, dose: 1000.0 mg/kg/injection, schedule: Q01DX001 (ip), vehicle: other",6 of 6
same,survivor count,"T/C endpoint: mean survival time, dose: 1000.0 mg/kg/injection, schedule: Q01DX001 (sc), vehicle: other",6 of 6
same,survivor count,"T/C endpoint: mean survival time, dose: 1280.0 mg/kg/injection, schedule: Q01DX009 (oral), vehicle: saline",1 of 6
same,survivor count,"T/C endpoint: mean survival time, dose: 1428.0 mg/kg/injection, schedule: Q01DX001 (ip), vehicle: other",6 of 6
same,survivor count,"T/C endpoint: mean survival time, dose: 1428.0 mg/kg/injection, schedule: Q01DX001 (sc), vehicle: other",6 of 6
same,T/C,"T/C endpoint: median survival time, dose: 39.0 mg/kg/injection, schedule: Q01DX009 (ip), vehicle: other",142 % of control
same,T/C,"T/C endpoint: median survival time, dose: 39.0 mg/kg/injection, schedule: Q03HX008 (ip), vehicle: other",141 % of control
same,T/C,"T/C endpoint: median survival time, dose: 65.0 mg/kg/injection, schedule: Q03HX008 (ip), vehicle: other",137 % of control
same,T/C,"T/C endpoint: median survival time, dose: 75.0 mg/kg/injection, schedule: Q04DX003 (ip), vehicle: Klucel (hydroxypropylcellulose) (HPC), evaluated on day 5",96 and 101 % of control
same,T/C,"T/C endpoint: median survival time, dose: 75.0 mg/kg/injection, schedule: Q04DX003 (ip), vehicle: Klucel (hydroxypropylcellulose) (HPC), evaluated on day 30",96 and 101 % of control
same,T/C,"T/C endpoint: median survival time, dose: 75.0 mg/kg/injection, schedule: Q04DX003 (ip), vehicle: other, evaluated on day 5","101, 103, 107 % of control"
same,T/C,"T/C endpoint: median survival time, dose: 75.0 mg/kg/injection, schedule: Q04DX003 (ip), vehicle: other, evaluated on day 30","100, 103, 107 % of control"
same,T/C,"T/C endpoint: median survival time, dose: 108.0 mg/kg/injection, schedule: Q01DX009 (ip), vehicle: other",134 % of control
same,T/C,"T/C endpoint: median survival time, dose: 150.0 mg/kg/injection, schedule: Q04DX003 (ip), vehicle: Klucel (hydroxypropylcellulose) (HPC), evaluated on day 5",104 and 108 % of control
same,T/C,"T/C endpoint: median survival time, dose: 150.0 mg/kg/injection, schedule: Q04DX003 (ip), vehicle: Klucel (hydroxypropylcellulose) (HPC), evaluated on day 30",104 and 108 % of control
same,T/C,"T/C endpoint: median survival time, dose: 150.0 mg/kg/injection, schedule: Q04DX003 (ip), vehicle: other, evaluated on day 5","109, 114, 124 % of control"
same,T/C,"T/C endpoint: median survival time, dose: 150.0 mg/kg/injection, schedule: Q04DX003 (ip), vehicle: other, evaluated on day 30","111, 114, 124 % of control"
same,T/C,"T/C endpoint: median survival time, dose: 180.0 mg/kg/injection, schedule: Q04DX003 (oral), vehicle: other",126 % of control
same,T/C,"T/C endpoint: median survival time, dose: 300.0 mg/kg/injection, schedule: Q01DX001 (ip), vehicle: other",126 % of control [7 of 8 alive]
same,T/C,"T/C endpoint: median survival time, dose: 300.0 mg/kg/injection, schedule: Q04DX003 (ip), vehicle: Klucel (hydroxypropylcellulose) (HPC), evaluated on day 5",102 and 150 % of control
same,T/C,"T/C endpoint: median survival time, dose: 300.0 mg/kg/injection, schedule: Q04DX003 (ip), vehicle: Klucel (hydroxypropylcellulose) (HPC), evaluated on day 30",102 and 150 % of control
same,T/C,"T/C endpoint: median survival time, dose: 300.0 mg/kg/injection, schedule: Q04DX003 (ip), vehicle: other, evaluated on day 5","133, 152, 156 % of control"
same,T/C,"T/C endpoint: median survival time, dose: 300.0 mg/kg/injection, schedule: Q04DX003 (ip), vehicle: other, evaluated on day 30","133, 140, 152 (2×), 156 % of control"
same,T/C,"T/C endpoint: median survival time, dose: 300.0 mg/kg/injection, schedule: Q04DX003 (ip), vehicle: water, evaluated on day 5",139 % of control
same,T/C,"T/C endpoint: median survival time, dose: 300.0 mg/kg/injection, schedule: Q04DX003 (ip), vehicle: water, evaluated on day 30",139 % of control
same,T/C,"T/C endpoint: median survival time, dose: 300.0 mg/kg/injection, schedule: Q04DX003 (sc), vehicle: other",149 % of control
same,T/C,"T/C endpoint: median survival time, dose: 500.0 mg/kg/injection, schedule: Q01DX001 (ip), vehicle: other",141 % of control
same,T/C,"T/C endpoint: median survival time, dose: 500.0 mg/kg/injection, schedule: Q04DX003 (ip), vehicle: other",125 % of control
same,T/C,"T/C endpoint: median survival time, dose: 600.0 mg/kg/injection, schedule: Q04DX003 (ip), vehicle: Klucel (hydroxypropylcellulose) (HPC), evaluated on day 5",97 and 148 % of control
same,T/C,"T/C endpoint: median survival time, dose: 600.0 mg/kg/injection, schedule: Q04DX003 (ip), vehicle: Klucel (hydroxypropylcellulose) (HPC), evaluated on day 30",97 and 148 % of control
same,T/C,"T/C endpoint: median survival time, dose: 600.0 mg/kg/injection, schedule: Q04DX003 (ip), vehicle: other, evaluated on day 5","104, 138, 155 % of control"
same,T/C,"T/C endpoint: median survival time, dose: 600.0 mg/kg/injection, schedule: Q04DX003 (ip), vehicle: other, evaluated on day 30","104, 138, 155 % of control"
same,T/C,"T/C endpoint: median survival time, dose: 600.0 mg/kg/injection, schedule: Q04DX003 (ip), vehicle: water, evaluated on day 5",129 % of control
same,T/C,"T/C endpoint: median survival time, dose: 600.0 mg/kg/injection, schedule: Q04DX003 (ip), vehicle: water, evaluated on day 30",129 % of control
same,T/C,"T/C endpoint: median survival time, dose: 833.0 mg/kg/injection, schedule: Q01DX001 (ip), vehicle: other",141 % of control
same,survivor count,"T/C endpoint: median survival time, dose: 833.0 mg/kg/injection, schedule: Q04DX003 (ip), vehicle: other",8 of 8
same,T/C,"T/C endpoint: median survival time, dose: 1200.0 mg/kg/injection, schedule: Q04DX003 (ip), vehicle: Klucel (hydroxypropylcellulose) (HPC), evaluated on day 5",75 and 125 % of control
same,T/C,"T/C endpoint: median survival time, dose: 1200.0 mg/kg/injection, schedule: Q04DX003 (ip), vehicle: Klucel (hydroxypropylcellulose) (HPC), evaluated on day 30",125 % of control
same,survivor count,"T/C endpoint: median survival time, dose: 1200.0 mg/kg/injection, schedule: Q04DX003 (ip), vehicle: Klucel (hydroxypropylcellulose) (HPC)",5 of 8
same,T/C,"T/C endpoint: median survival time, dose: 1200.0 mg/kg/injection, schedule: Q04DX003 (ip), vehicle: other, evaluated on day 5","91, 105, 160 % of control"
same,T/C,"T/C endpoint: median survival time, dose: 1200.0 mg/kg/injection, schedule: Q04DX003 (ip), vehicle: other, evaluated on day 30","91 [7 of 8 alive], 105, 161 % of control"
